Experimental data as given in patent US20060240474A1, “Peptides able to switch between two structural states and their use” (UNIVERSITY OF SUSSEX, priority 2002, published 2006).
Where a SMILES comes first, the peptide text is derived from it. Bridges are numbered along the chain shown (N, C = ends).

Experiment: Sedimentation equilibrium analytical ultracentrifugation (monomer-dimer equilibrium)
Assay type: physicochemical
Settings: for MW in solution (95% confidence limits): 5° C., pH 7, fit assuming a single ideal species; for oligomer state by sedimentation equilibrium analysis: pH 7, 5° C.
Description: Sedimentation equilibrium experiments were conducted at 5° C. in a Beckman-Optima XL-I analytical ultracentrifuge fitted with an An-60 Ti rotor. A […] peptide solution at […] in 25 mM K phosphate buffer pH 7 containing 0.1 M KCl was equilibrated for 48 h at speeds of 40 000, 47 500/50 000 and 55 000/60 000 rpm. […] The molecular weights (Table 2) and partial specific volumes (range 0.7417 to 0.7461) of the peptides were calculated from their amino-acid sequences, and the viscosity of the buffer at 5° C. was taken to be […].

| Molecule | MW in solution (95% confidence limits) | oligomer state by sedimentation equilibrium analysis | also measured |
| --- | --- | --- | --- |
| CGGEIRALKYEIARLKQ----KKRALEQKIAALEGGC [CSP-1r] | 6885 (6639, 7127) Da | monomer-dimer equilibrium |  |
| CGGEIRALKYEIARLKQ----KKRALEQKIAALEGGC [CSP-1o] |  | monomeric |  |
| CGGEIRALKYEIARLKQGGGGKKRALEQKIAALEGGC [CSP-2r] |  | molecular weight close to that expected for monomer | MW in solution (95% confidence limits) (listed as CSP-4a): 3901 (3708, 4088) Da |
| CGGEIRALKYEIARLKQAAQAKIRALEQKIAALEGGC [CSP-6r] |  | dimeric | MW in solution (95% confidence limits) (listed as CSP-7a): 7148 (6931, 7361) Da |
| CGGEIRALKYEIARLKQGGGGKKRALEQKIAALEGGC [CSP-2o] | 3260 (3018, 3495) Da | monomeric species in solution |  |
| CGGEIRALKYEIARLKQAAQAKIRALEQKIAALEGGC [CSP-6o] | 3810 (3591, 4023) Da |  |  |
| CGGKIRALEYKIARLEQAKQAKIRALEQKIAALEGGC [CSP-5r] |  | formed helical dimers | MW in solution (95% confidence limits) (listed as CSP-6a): 6819 (6336, 7286) Da |
| CGGEIRALKYEIARLKQAKQAEIRALKQEIAALKGGC [CSP-4o] | 3811 (3642, 3975) Da | behaved as monomers |  |
| CGGEIRALKYEIARLKQAAQAKKRALEQKIAALEGGC [CSP-7r] |  |  | MW in solution (95% confidence limits) (listed as CSP-8a): 5481 (5199, 5755) Da |
| CGGKIRALEYKIARLEQAKQAKIRALEQKIAALEGGC [CSP-5o] | 3768 (3563, 3968) Da | behaved as monomers |  |
| CGGEIRALKYEIARLKQAKQAEIRALKQEIAALKGGC [CSP-4r] |  | formed helical dimers | MW in solution (95% confidence limits) (listed as CSP-5a): 6949 (6715, 7180) Da |
| CGGEIRALKYEIARLKQAAQAKKRALEQKIAALEGGC [CSP-7o] | 3665 (3535, 3791) Da |  | MW in solution (95% confidence limits) (listed as CSP-8o): 3295 (3137, 3449) Da |
| CC[C@H](C)[C@@H]1NC(=O)[C@H](CCCCN)NC(=O)[C@H](CCC(N)=O)NC(=O)[C@H](CCC(=O)O)NC(=O)[C@H](CC(C)C)NC(=O)[C@H](C)NC(=O)[C@H](CCCNC(=N)N)NC(=O)[C@H]([C@@H](C)CC)NC(=O)[C@H](CCCCN)NC(=O)[C@H](C)NC(=O)[C@H](CCC(N)=O)NC(=O)[C@H](CCCCN)NC(=O)[C@H](C)NC(=O)[C@H](CCC(N)=O)NC(=O)[C@H](CCCCN)NC(=O)[C@H](CC(C)C)NC(=O)[C@H](CCCNC(=N)N)NC(=O)[C@H](C)NC(=O)[C@H]([C@@H](C)CC)NC(=O)[C@H](CCC(=O)O)NC(=O)[C@H](Cc2ccc(O)cc2)NC(=O)[C@H](CCCCN)NC(=O)[C@H](CC(C)C)NC(=O)[C@H](C)NC(=O)[C@H](CCCNC(=N)N)NC(=O)[C@H]([C@@H](C)CC)NC(=O)[C@H](CCC(=O)O)NC(=O)CNC(=O)CNC(=O)[C@@H](N)CSSC[C@@H](C(=O)O)NC(=O)CNC(=O)CNC(=O)[C@H](CCC(=O)O)NC(=O)[C@H](CC(C)C)NC(=O)[C@H](C)NC(=O)[C@H](C)NC1=O [CSP-3o] (H-CGGEIRALKYEIARLKQAKQAKIRALEQKIAALEGGC-OH; disulfide 1-37; N-terminus and C-terminus assumed) | 3522 (3308, 3731) Da | monomeric |  |
| CGGEIRALKYEIARLKQAKQAKIRALEQKIAALEGGC [CSP-3r] | 6652 (6372, 6925) Da | monomer-dimer equilibrium |  |
